For this test, the target named is T1, BcsG (two-hybrid fusion) (E. coli 1094) (UniProt P37659).
T1 sequence: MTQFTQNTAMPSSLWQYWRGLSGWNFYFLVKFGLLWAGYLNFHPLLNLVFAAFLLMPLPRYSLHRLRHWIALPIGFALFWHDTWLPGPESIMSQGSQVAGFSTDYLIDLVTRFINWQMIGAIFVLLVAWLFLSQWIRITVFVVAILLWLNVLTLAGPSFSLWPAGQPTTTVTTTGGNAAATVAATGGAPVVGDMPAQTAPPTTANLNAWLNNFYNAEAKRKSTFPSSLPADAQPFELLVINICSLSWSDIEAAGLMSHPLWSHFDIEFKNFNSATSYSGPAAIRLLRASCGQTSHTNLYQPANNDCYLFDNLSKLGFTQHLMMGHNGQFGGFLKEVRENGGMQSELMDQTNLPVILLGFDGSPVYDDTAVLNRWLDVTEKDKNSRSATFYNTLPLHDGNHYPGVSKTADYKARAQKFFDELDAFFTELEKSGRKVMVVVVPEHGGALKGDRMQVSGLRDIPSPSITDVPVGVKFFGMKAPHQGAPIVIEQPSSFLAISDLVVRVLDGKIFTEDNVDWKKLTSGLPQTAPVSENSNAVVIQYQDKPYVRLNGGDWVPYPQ
Put plainly: two-hybrid; Bacterial adenylate cyclase (T25/T18) complementation in E. coli cya BTH101; blue colonies on LB-agar with X-gal and IPTG; more stringent: growth and blue colour on M63B1-agar with 0.4% maltose.

No constants are given. Whether binding was seen depends on the method and setting. A result given as binding can be weak or reduced; the word gives no strength. Where a sequence is shown, tags or fusion partners need not be part of it.

For the substance “BcsA^NTD (two-hybrid fusion) (E. coli 1094) (domain or fragment)”, the binding result is “binds”.

The record behind these values is publication PMC5727187, “Insights into the structure and assembly of a bacterial cellulose secretion system” (Nature Communications, 2017).
